Reference: PubChem BioAssay AID1224830 (NIAID, 2016)

Screen: 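Genes whose knock-down alters the TNF-alpha reporter response to LPS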 (primary screen)
Cells: human THP-1 monocytic leukaemia cells, TNF dual-luciferase reporter clone, PMA-differentiated to macrophage-like cells
Reagent: siRNA pool against human genes, 50 nM
Time to read-out: LPS for 4 h, given about 3 days after siRNA transfection
Conditions: bacterial LPS (TLR4 ligand), 10 ng/ml
Detection: 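TNF firefly reporter luminescence divided by renilla, normalised to the plate median, then turned into a robust z-score for each replicate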
Direction: TNF reporter robust z-score: higher = stronger TNF reporter response to LPS
Active means: 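Each well counts as active if its z-score is over 2.8 or under -1.5; controls are left without a call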
The deposit covers about 18,000 reagents; this is an unselected part. Over the whole deposit, about 2,900 (16%) are marked active. 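Calls are made per well; low scores hint the gene aids the LPS response, high scores that it dampens it.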 Repeated entries: four replicate wells of each siRNA pool. Reagent sequences are not shown.

ELOB (elongin B) — TNF reporter robust z-score = 2.64; call = inactive
ELOB (elongin B) — TNF reporter robust z-score = 1.24; call = inactive
ELOB (elongin B) — TNF reporter robust z-score = 3.12; call = active
ELOB (elongin B) — TNF reporter robust z-score = 2.77; call = inactive
C1QTNF9B (C1q and TNF related 9B) — TNF reporter robust z-score = 0.22; call = inactive
C1QTNF9B (C1q and TNF related 9B) — TNF reporter robust z-score = 0.08; call = inactive
C1QTNF9B (C1q and TNF related 9B) — TNF reporter robust z-score = 0.27; call = inactive
C1QTNF9B (C1q and TNF related 9B) — TNF reporter robust z-score = 0.42; call = inactive
APBA3 (amyloid beta precursor protein binding family A member 3) — TNF reporter robust z-score = 1.4; call = inactive
APBA3 (amyloid beta precursor protein binding family A member 3) — TNF reporter robust z-score = 1.7; call = inactive
APBA3 (amyloid beta precursor protein binding family A member 3) — TNF reporter robust z-score = 0.86; call = inactive
APBA3 (amyloid beta precursor protein binding family A member 3) — TNF reporter robust z-score = 2.81; call = active
PFKFB2 (6-phosphofructo-2-kinase/fructose-2,6-biphosphatase 2) — TNF reporter robust z-score = 0.17; call = inactive
PFKFB2 (6-phosphofructo-2-kinase/fructose-2,6-biphosphatase 2) — TNF reporter robust z-score = 0.53; call = inactive
PFKFB2 (6-phosphofructo-2-kinase/fructose-2,6-biphosphatase 2) — TNF reporter robust z-score = 0.44; call = inactive
PFKFB2 (6-phosphofructo-2-kinase/fructose-2,6-biphosphatase 2) — TNF reporter robust z-score = 0.91; call = inactive
AKR7L (aldo-keto reductase family 7 like (gene/pseudogene)) — TNF reporter robust z-score = -0.09; call = inactive
AKR7L (aldo-keto reductase family 7 like (gene/pseudogene)) — TNF reporter robust z-score = -0.95; call = inactive
AKR7L (aldo-keto reductase family 7 like (gene/pseudogene)) — TNF reporter robust z-score = -0.13; call = inactive
AKR7L (aldo-keto reductase family 7 like (gene/pseudogene)) — TNF reporter robust z-score = -0.39; call = inactive
MPZL1 (myelin protein zero like 1) — TNF reporter robust z-score = 3.58; call = active
MPZL1 (myelin protein zero like 1) — TNF reporter robust z-score = 4.39; call = active
MPZL1 (myelin protein zero like 1) — TNF reporter robust z-score = 2.6; call = inactive
MPZL1 (myelin protein zero like 1) — TNF reporter robust z-score = 3.18; call = active
C6 (complement C6) — TNF reporter robust z-score = -0.09; call = inactive
C6 (complement C6) — TNF reporter robust z-score = -0.03; call = inactive
C6 (complement C6) — TNF reporter robust z-score = -0.05; call = inactive
C6 (complement C6) — TNF reporter robust z-score = 0.73; call = inactive
POLK (DNA polymerase kappa) — TNF reporter robust z-score = -0.92; call = inactive
POLK (DNA polymerase kappa) — TNF reporter robust z-score = -0.93; call = inactive
POLK (DNA polymerase kappa) — TNF reporter robust z-score = -1.24; call = inactive
POLK (DNA polymerase kappa) — TNF reporter robust z-score = -0.05; call = inactive
CRTAP (cartilage associated protein) — TNF reporter robust z-score = -1.32; call = inactive
CRTAP (cartilage associated protein) — TNF reporter robust z-score = -0.83; call = inactive
CRTAP (cartilage associated protein) — TNF reporter robust z-score = -1.03; call = inactive
CRTAP (cartilage associated protein) — TNF reporter robust z-score = -0.07; call = inactive

Continued, starting with the last 7 of the part before.
POLK (DNA polymerase kappa) — TNF reporter robust z-score = -0.93; call = inactive
POLK (DNA polymerase kappa) — TNF reporter robust z-score = -1.24; call = inactive
POLK (DNA polymerase kappa) — TNF reporter robust z-score = -0.05; call = inactive
CRTAP (cartilage associated protein) — TNF reporter robust z-score = -1.32; call = inactive
CRTAP (cartilage associated protein) — TNF reporter robust z-score = -0.83; call = inactive
CRTAP (cartilage associated protein) — TNF reporter robust z-score = -1.03; call = inactive
CRTAP (cartilage associated protein) — TNF reporter robust z-score = -0.07; call = inactive
OR4S2 (olfactory receptor family 4 subfamily S member 2) — TNF reporter robust z-score = -0.17; call = inactive
OR4S2 (olfactory receptor family 4 subfamily S member 2) — TNF reporter robust z-score = -0.18; call = inactive
OR4S2 (olfactory receptor family 4 subfamily S member 2) — TNF reporter robust z-score = -0.29; call = inactive
OR4S2 (olfactory receptor family 4 subfamily S member 2) — TNF reporter robust z-score = 0.19; call = inactive
TBC1D3C (TBC1 domain family member 3C) — TNF reporter robust z-score = -0.75; call = inactive
TBC1D3C (TBC1 domain family member 3C) — TNF reporter robust z-score = -0.56; call = inactive
TBC1D3C (TBC1 domain family member 3C) — TNF reporter robust z-score = -0.59; call = inactive
TBC1D3C (TBC1 domain family member 3C) — TNF reporter robust z-score = -0.49; call = inactive
C5AR2 (complement C5a receptor 2) — TNF reporter robust z-score = 0.24; call = inactive
C5AR2 (complement C5a receptor 2) — TNF reporter robust z-score = -0.12; call = inactive
C5AR2 (complement C5a receptor 2) — TNF reporter robust z-score = -0.02; call = inactive
C5AR2 (complement C5a receptor 2) — TNF reporter robust z-score = 1.37; call = inactive
MIMS2 (mitochondrial inner membrane structural 2) — TNF reporter robust z-score = 0.61; call = inactive
MIMS2 (mitochondrial inner membrane structural 2) — TNF reporter robust z-score = -0.06; call = inactive
MIMS2 (mitochondrial inner membrane structural 2) — TNF reporter robust z-score = -0.18; call = inactive
MIMS2 (mitochondrial inner membrane structural 2) — TNF reporter robust z-score = -0.89; call = inactive
KLHL42 (kelch like family member 42) — TNF reporter robust z-score = -0.13; call = inactive
KLHL42 (kelch like family member 42) — TNF reporter robust z-score = 0.07; call = inactive
KLHL42 (kelch like family member 42) — TNF reporter robust z-score = -0.03; call = inactive
KLHL42 (kelch like family member 42) — TNF reporter robust z-score = 0.5; call = inactive
CFAP95 (cilia and flagella associated protein 95) — TNF reporter robust z-score = -1.87; call = active
CFAP95 (cilia and flagella associated protein 95) — TNF reporter robust z-score = 1.03; call = inactive
CFAP95 (cilia and flagella associated protein 95) — TNF reporter robust z-score = 0.18; call = inactive
CFAP95 (cilia and flagella associated protein 95) — TNF reporter robust z-score = 0.69; call = inactive
